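Curve-fitted potency for raising eGFP-delta133p53alpha fluorescence in NCI-H358 cells after a 24-hour treatment.
The dilution series runs from about 7.7e-06 to 290 µM in 23 concentration columns.
Potency, read at half-maximal effect from the fitted activation curve; lower values mean a more potent compound.
Calls follow the dose-curve shape: a well-fitted activation curve with a large enough effect is active, and small, poorly fitted or top-dose-only effects are inconclusive.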

By UniProt entry, the sequences of proteins in these tests, tags left out.
UniProt P04637, whole entry, target on record: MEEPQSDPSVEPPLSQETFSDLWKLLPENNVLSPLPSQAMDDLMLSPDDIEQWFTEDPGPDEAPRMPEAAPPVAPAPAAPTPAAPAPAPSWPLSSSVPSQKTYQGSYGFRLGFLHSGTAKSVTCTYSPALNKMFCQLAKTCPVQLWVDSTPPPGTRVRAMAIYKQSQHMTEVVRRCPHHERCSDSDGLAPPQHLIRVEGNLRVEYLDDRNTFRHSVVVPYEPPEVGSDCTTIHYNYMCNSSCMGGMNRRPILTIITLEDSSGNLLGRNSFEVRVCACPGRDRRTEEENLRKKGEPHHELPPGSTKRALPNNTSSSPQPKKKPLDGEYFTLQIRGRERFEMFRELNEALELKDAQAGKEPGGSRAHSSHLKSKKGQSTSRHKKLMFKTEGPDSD

Values are in µM.
All entries here are filed as inconclusive.
Only part of the assay is shown, chiefly results filed as inconclusive.
A potency from a partial, single-point or poor curve is only a rough figure.
Some entries filed as inconclusive have a full curve.

structure,Potency (µM),curve
CCCCc1ccc2nc(NC(=O)OC)[nH]c2c1,0.1951,"activator, full curve, poor fit"
Cc1cc2c(c(=O)[nH]1)OC(C(O)CC(C)C)O2 (centres undefined),15.1,"activator, partial curve, poor fit"
O=C(O)CSc1cc(NS(=O)(=O)c2ccc(Br)cc2)c2ccccc2c1O,26.85,"activator, single point"
NC1=NC(=O)N2CC12 (centres undefined),30.61,"activator, single point"
CCOc1cc2ncc(C#N)c(Nc3ccc(F)c(Cl)c3)c2cc1NC(=O)C=CCN(C)C,0.0432,"activator, full curve, poor fit"
C=C1/C(=C/C=C2\CCC[C@]3(C)[C@@H]([C@H](C)/C=C/C(=O)C4CC4)CC[C@@H]23)C[C@@H](O)C[C@@H]1O,37.93,"activator, single point"
CN1CCC(CNc2ccc3ncc(-c4cccc(OC(F)(F)F)c4)n3n2)CC1,4.852,"activator, full curve, poor fit"
Cn1ncc(Cl)c1-c1cc(C(=O)N[C@H](CN)Cc2ccc(F)c(F)c2)sc1Cl,23.93,"activator, single point"
Cc1ccc2c(c1)c1c(n2CCc2ccc(C)nc2)CCN(C)C1,9.68,"activator, full curve, poor fit"
C[C@H](NC(=O)C(=O)Nc1ccccc1C(C)(C)C)C(=O)N[C@@H](CC(=O)O)C(=O)COc1c(F)c(F)cc(F)c1F,27.28,"activator, partial curve"
CC(C)(C)c1ccc(C(=O)CCCN2CCC(OC(c3ccccc3)c3ccccc3)CC2)cc1,38.93,"activator, single point"
Cc1ccc(-c2ncn(-c3ccc(Nc4nccc(-c5cccc(N6CCOCC6)c5)n4)cc3)n2)cn1,27.28,"activator, partial curve, poor fit"
Cc1cc2occ(CN(C)CCN(C)Cc3cn(-c4cccc(C(F)(F)F)c4)c4ccccc34)c(=O)c2cc1C,33.81,"activator, single point"
CC1=C(/C=C/C(C)=C/C=C/C(C)=C/C(=O)Nc2ccc(O)cc2)C(C)(C)CCC1,5.499,"activator, full curve, poor fit"
O=C(Nc1cccc(Nc2ncc(Br)c(NCCc3cnc[nH]3)n2)c1)N1CCCC1,15.34,"activator, partial curve, poor fit"
CN1CC[C@@H](c2c(O)cc(O)c3c(=O)cc(-c4ccc(C(F)(F)F)cc4Cl)oc23)[C@@H]1CO,37.93,"activator, single point"
CNCc1ccc(-c2[nH]c3cc(F)cc4c3c2CCNC4=O)cc1,33.81,"activator, single point"
O=C(Nc1cccc(C2=NCCN2)c1)Nc1cccc(C2=NCCN2)c1,19.01,"activator, single point"
COc1ccc(-c2nc(N3CCOCC3)c3sc(CN(C)c4ncc(C(=O)NO)cn4)cc3n2)cn1,3.435,"activator, partial curve, poor fit"
Cc1ccc(N(CC2=NCCN2)c2cccc(O)c2)cc1,13.67,"activator, partial curve"
CC(C)c1cnn2c(NCc3ccccc3)cc(NCCCCCCN)nc12,19.31,"activator, partial curve, poor fit"
Cn1cc(C[C@@H](N)C(=O)O)c2ccccc21,2.37,"activator, full curve, poor fit"
COC(=O)C1=C(C)NC(C)=C(C(=O)OC(C)(C)CN(C)CCC(c2ccccc2)c2ccccc2)C1c1cccc([N+](=O)[O-])c1 (centres undefined),21.33,"activator, single point"
COc1ccc(C(O[C@@H]2O[C@H](CO)[C@@H](O)[C@H](O)[C@H]2O)C(CO)Oc2ccc(/C=C/CO)cc2OC)cc1O (some centres undefined),0.5221,"activator, full curve"
O=C(O)CC(=O)OC[C@H]1O[C@@H](Oc2ccc3c(c2)OC[C@H]2c4cc5c(cc4O[C@@H]32)OCO5)[C@H](O)[C@@H](O)[C@@H]1O,0.0059,"activator, full curve"
C=C1[C@@H](C)[C@H]2[C@H](Cc3c[nH]c4ccccc34)NC(=O)[C@]23C(=O)/C=C/C(=O)[C@H](O)/C(C)=C\[C@@H](C)C/C=C/[C@H]3[C@@H]1O,18.53,"activator, single point"

Repeated from the top, 2 entries:

For CCCCc1ccc2nc(NC(=O)OC)[nH]c2c1 the result was Potency 0.1951 µM (activator, full curve, poor fit).
For Cc1cc2c(c(=O)[nH]1)OC(C(O)CC(C)C)O2 (centres undefined) the result was Potency 15.1 µM (activator, partial curve, poor fit).

From PubChem BioAssay record AID2060322 (NCATS, 2025).